PubChem BioAssay AID686938, Drosophila RNAi Screening Center | 2013
In all, the deposit lists about 23,000 reagents; this is an unselected part of those with a known target gene and a result. Over the whole deposit, 75 (0.33%) were called active. 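Raw plate signals without normalisation; calls rest on plate z-scores that were not deposited; ratio present for only 364 wells.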 A number with no mark means an inactive call. Names joined by + are all predicted targets of the reagent. Reagent sequences are not shown. The record does not give: the dose of the treatment.

Assay: 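Fly genes required for calcium entry once internal stores are emptied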 (primary screen)
Cells: Drosophila S2R+ cells
Reagent: long dsRNA against Drosophila genes, about 0.25 µg dsRNA per well, roughly 10,000 cells
Time to read-out: 5 days of knock-down before the calcium assay
Challenge: thapsigargin (SERCA pump blocker) to empty calcium stores; entry signal taken 4 min after adding it
Detection: 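Duplicate raw fluo-4 intensities per well from a plate reader, at rest and four minutes after thapsigargin emptied calcium stores; entry-to-rest ratio filled for only some wells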
Direction: calcium entry signal: higher = stronger calcium signal after store depletion; entry to resting ratio: higher = more calcium entry relative to resting level; resting calcium signal: higher = higher resting calcium signal
Hit rule: 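Called when the plate z-score of the entry-to-rest ratio, mean of duplicates, falls below −3; wells with low overall dye signal (Fmax z below −2) or more than five off-targets excluded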
Calls: active = strongly reduced calcium entry; inactive = no strong reduction

target gene	amplicon	calcium entry signal, replicate 1 (fluorescence units)	calcium entry signal, replicate 2 (fluorescence units)	entry to resting ratio	resting calcium signal, replicate 1 (fluorescence units)	resting calcium signal, replicate 2 (fluorescence units)
Jon99Ci	DRSC16860	3.55e7	6.32e7		1.89e7	2.71e7
Sytalpha	DRSC02869	4.95e7	3.22e7		2.13e7	1.51e7
SrpRalpha	DRSC20251	2.38e7	3.57e7		1.22e7	1.65e7
Try29F	DRSC03466	2.51e7	3.10e7		1.14e7	1.34e7
hpRNA:CR32207	DRSC09616	3.79e7	3.17e7		1.87e7	1.48e7
Gbs-70E	DRSC11055	5.15e7	6.34e7		2.25e7	2.67e7
CG11141	DRSC06048	4.41e7			2.18e7	
Lint-1 + rtv	DRSC19541	3.01e7	3.12e7		1.52e7	1.54e7
mtg	DRSC16256	5.04e7	3.73e7		2.21e7	1.69e7
CG15177	DRSC12557	4.80e7	3.96e7		2.48e7	1.92e7

Entries listed so far whose gene name starts with C or c:
target gene	amplicon	calcium entry signal, replicate 1 (fluorescence units)	calcium entry signal, replicate 2 (fluorescence units)	entry to resting ratio	resting calcium signal, replicate 1 (fluorescence units)	resting calcium signal, replicate 2 (fluorescence units)
CG11141	DRSC06048	4.41e7			2.18e7	
CG15177	DRSC12557	4.80e7	3.96e7		2.48e7	1.92e7

The results go on.
target gene	amplicon	calcium entry signal, replicate 1 (fluorescence units)	calcium entry signal, replicate 2 (fluorescence units)	entry to resting ratio	resting calcium signal, replicate 1 (fluorescence units)	resting calcium signal, replicate 2 (fluorescence units)
CG11927	DRSC00337	3.36e7			1.70e7	
nis	DRSC00290	3.83e7			2.11e7	
SIFaR	DRSC13467	4.09e7	3.41e7		2.32e7	1.75e7
SIFaR	DRSC14266	2.94e7	3.21e7		3.38e7	1.33e7
Smox	DRSC18716	2.54e7	3.41e7		1.33e7	1.62e7
GNBP-like3	DRSC06385	3.63e7	3.54e7		1.72e7	1.99e7
babo	DRSC07581	2.58e7	3.91e7		1.28e7	1.69e7
CG8500	DRSC16434	3.48e7	3.22e7		1.80e7	1.64e7
spag4	DRSC02973	3.74e7	4.83e7		1.81e7	2.04e7
CG30392	DRSC22341	3.64e7	5.01e7		1.70e7	2.62e7
CG10395	DRSC04840	3.58e7			1.80e7	
Nt5c	DRSC06711	3.64e7	2.80e7		1.50e7	1.29e7
CG17959	DRSC18142	6.42e7	6.27e7	2.1	3.04e7	2.74e7
Obp59a	DRSC04160	3.56e7	4.81e7		1.78e7	2.15e7
